{"source": "PubChem BioAssay AID1224828 | NIAID | 2016", "test": "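Regulators linking TLR4 signalling to p65 nuclear translocation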 (primary screen)", "cell system": "mouse RAW264.7 G9 macrophage reporter cells (GFP-p65, Tnf promoter-mCherry)", "reagents": "siRNA pool against mouse genes, 100 nM", "duration": "2 days siRNA transfection, then 40 min LPS before fixation", "treatment": "LPS (Salmonella minnesota R595) at 10 ng/ml", "measured": "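Microscopy ratio of nuclear to perinuclear-ring GFP-p65 signal, scaled to the plate median; gene score is the average of two replicate robust z-scores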", "scale": "p65 translocation robust z-score: higher = more nuclear NF-kappaB p65 after LPS than the plate median; nuclear/cytoplasmic p65 ratio: higher = more nuclear NF-kappaB p65", "rule for the call": "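Called active when z exceeds 3.3 or falls under -1.56 (median of Tlr4 controls), giving activity score of at least 50; no calls for control wells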", "meaning of the calls": "active = hit (p65 shift raised or lowered); inactive = no clear change", "note": "In all, the deposit lists about 17,000 reagents; this is an unselected part. 762 of them (4.5%) count as active. 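Active calls include both raised and lowered p65 entry, mostly lowered; wells with fewer than 50 cells lack a z-score.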 Raw values vary from plate to plate and are shown uncorrected. Entries without a mark were called inactive."}
{"Gene": "Vmn1r206", "p65 translocation robust z-score": -0.16, "nuclear/cytoplasmic p65 ratio, rep 1": 1.4, "nuclear/cytoplasmic p65 ratio, rep 2": 1.21, "low cell count flag": "enough cells to score"}
{"Gene": "Mtfr1", "p65 translocation robust z-score": -0.55, "nuclear/cytoplasmic p65 ratio, rep 1": 1.37, "nuclear/cytoplasmic p65 ratio, rep 2": 1.47, "low cell count flag": "enough cells to score"}
{"Gene": "Kap", "p65 translocation robust z-score": -0.16, "nuclear/cytoplasmic p65 ratio, rep 1": 1.57, "nuclear/cytoplasmic p65 ratio, rep 2": 1.37, "low cell count flag": "enough cells to score"}
{"Gene": "Aldoc", "p65 translocation robust z-score": -0.42, "nuclear/cytoplasmic p65 ratio, rep 1": 1.49, "nuclear/cytoplasmic p65 ratio, rep 2": 1.62, "low cell count flag": "enough cells to score"}
{"Gene": "Gpx8", "nuclear/cytoplasmic p65 ratio, rep 1": 1.43, "nuclear/cytoplasmic p65 ratio, rep 2": 1.45, "low cell count flag": "fewer than 50 cells per well; well left out of scoring"}
{"Gene": "Ncbp2", "p65 translocation robust z-score": -1.5, "nuclear/cytoplasmic p65 ratio, rep 1": 1.47, "nuclear/cytoplasmic p65 ratio, rep 2": 1.43, "low cell count flag": "enough cells to score"}
{"Gene": "Strm", "p65 translocation robust z-score": -0.29, "nuclear/cytoplasmic p65 ratio, rep 1": 1.41, "nuclear/cytoplasmic p65 ratio, rep 2": 1.2, "low cell count flag": "enough cells to score"}
{"Gene": "Pdcd10", "p65 translocation robust z-score": 0.23, "nuclear/cytoplasmic p65 ratio, rep 1": 1.52, "nuclear/cytoplasmic p65 ratio, rep 2": 1.41, "low cell count flag": "enough cells to score"}
{"Gene": "Or5ae1", "p65 translocation robust z-score": -1.39, "nuclear/cytoplasmic p65 ratio, rep 1": 1.4, "nuclear/cytoplasmic p65 ratio, rep 2": 1.5, "low cell count flag": "enough cells to score"}
{"Gene": "Gramd1b", "nuclear/cytoplasmic p65 ratio, rep 1": 1.15, "nuclear/cytoplasmic p65 ratio, rep 2": 1.06, "low cell count flag": "fewer than 50 cells per well; well left out of scoring"}
{"Gene": "Zfp677", "p65 translocation robust z-score": 0.19, "nuclear/cytoplasmic p65 ratio, rep 1": 1.5, "nuclear/cytoplasmic p65 ratio, rep 2": 1.45, "low cell count flag": "enough cells to score"}
{"Gene": "Vpreb1a", "p65 translocation robust z-score": -0.99, "nuclear/cytoplasmic p65 ratio, rep 1": 1.38, "nuclear/cytoplasmic p65 ratio, rep 2": 1.36, "low cell count flag": "enough cells to score"}

2 of these entries, reformatted:
Gene	p65 translocation robust z-score	nuclear/cytoplasmic p65 ratio, rep 1	nuclear/cytoplasmic p65 ratio, rep 2	low cell count flag
Pdcd10	0.23	1.52	1.41	enough cells to score
Or5ae1	-1.39	1.4	1.5	enough cells to score
